Assay results from article PMC2669504.
Results are given in words; binding and its absence hold for the method and conditions named. Some entries that bind do so weakly or less than the wild type. Each block holds one substance with its values, some of them ahead of it.

Sequences of proteins named here, by UniProt entry; tags and fusion partners are left off. A change or cut given only in a name is not applied to a line headed by its entry.
UniProt Q9Y5X4: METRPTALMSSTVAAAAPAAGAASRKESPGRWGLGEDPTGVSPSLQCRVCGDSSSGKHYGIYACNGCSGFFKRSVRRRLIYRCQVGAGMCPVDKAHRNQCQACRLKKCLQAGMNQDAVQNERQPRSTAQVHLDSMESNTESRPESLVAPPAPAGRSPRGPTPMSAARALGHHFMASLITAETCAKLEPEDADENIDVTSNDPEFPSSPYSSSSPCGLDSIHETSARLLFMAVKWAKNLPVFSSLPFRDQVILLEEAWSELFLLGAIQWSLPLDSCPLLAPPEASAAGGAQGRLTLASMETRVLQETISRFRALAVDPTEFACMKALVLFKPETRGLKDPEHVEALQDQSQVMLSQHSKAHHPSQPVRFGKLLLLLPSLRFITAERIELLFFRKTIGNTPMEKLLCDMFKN

Key:
Assay in all cases: native gel or EMSA; nuclear extracts of transfected COS-1 cells with 32P-labelled Kni x2 dimeric response element probe; 25 mM HEPES pH 7.5, 50 mM KCl, 5 mM MgCl2, 0.1 mM EDTA, 0.1% NP40, 10% glycerol; 40 min at room temperature; 4% polyacrylamide gel; dimerization concluded from the shifted band on the dimeric …
[1] = biological target: HA-tagged full-length NR2E3 (photoreceptor-cell specific nuclear receptor), wild-type (human) (UniProt Q9Y5X4)
[2] = biological target: HA-tagged full-length NR2E3 R311Q (human) (UniProt Q9Y5X4)
[3] = biological target: HA-tagged full-length NR2E3 W234S (human) (UniProt Q9Y5X4)

binding [1]: binds
Substance: HA-tagged full-length NR2E3 (photoreceptor-cell specific nuclear receptor), wild-type (from UniProt Q9Y5X4 1-410)

binding [2]: binds
Substance: HA-tagged full-length NR2E3 R311Q (from UniProt Q9Y5X4 1-410)

binding [3]: binds
Substance: HA-tagged full-length NR2E3 W234S (from UniProt Q9Y5X4 1-410)
